Reference: patent publication US20070244165A1, “Method for Identifying and Producing Effectors of Calmodulin-Dependent Peptidyl-Prolyl Cis/Trans Isomers” (MAX-PLANK-GESELLSCHAFT ZUR FORDERUNG, priority 2004, published 2007)
For at least one compound, name, drawing or mass did not settle the structure.

Biological target: T1, human CaMAP FKBP38 (Homo sapiens, UniProt Q14318)
T1 construct: made in house; host or cells: E. coli Rosetta cells (pET28a)
Test: Inhibition of PPIase activity of calmodulin-activated CaMAP FKBP38 (isomer-specific proteolysis with chymotrypsin)
Type: biochemical
Description: The human CaMAP FKBP38 (synonyms: FKBP8_HUMAN; Swiss-Prot-No.: Q14318) was produced molecular-biologically, as described in Example 9, and stored in aliquots of 100 μl with a protein concentration of 0.83 mg/ml at −80° C. Just before measuring the activity, one of these aliquots was thawed and subsequently stored at 4° C. Furthermore, commercially available calmodulin isolated from bovine brain (Sigma; purchase order no.: P2277), which had been stored at −80° C., was thawed just before measuring the activity and stored at 4° C. Suc-Ala-Phe-Pro-Phe-pNA (Bachem; purchase order no.: L-1400) was used as CaMAP substrate. Alpha-chymotrypsin isolated from bovine pancreas (Merck KG; purchase order no.: 102307) was used as isomer specific auxiliary enzyme. The following working solutions were prepared just before measuring and stored at 4° C.: • solution A: 55 mM HEPES buffer, pH 7.8; 1 mM DTT, 0.5% glycerol • solution B: 20 mg of the peptide substrate dissolved in 1 ml DMSO • solution C: 20 mg chymotrypsin dissolved in 200 μl of solution A • solution D: FKBP38 ([…], diluted in solution A) • solution E: calmodulin (300 μM, diluted in solution A) • solution F: calcium chloride (1 M in solution A)
For the kinetic determination of CaMAP activity, a computer assisted diode-array spectrometer (Hewlett Packard) with a cuvette temperature of 4° C. is used. […]

Structure (SMILES): C=CC[C@@H]1/C=C(\C)C[C@H](C)C[C@H](OC)[C@H]2O[C@@](O)(C(=O)C(=O)N3CCCC[C@H]3C(=O)O[C@H](/C(C)=C/[C@@H]3CC[C@@H](O)[C@H](OC)C3)[C@H](C)[C@@H](O)CC1=O)[C@H](C)C[C@@H]2OC [FK506]
- inhibition of PPIase activity of CaMAP FKBP38 (in words) (calmodulin/Ca2+-activated FKBP38): can be inhibited
- isomerization velocity (cuvette 5b: 1 μl of 15 mM FK506 in DMSO, 0.5 μM FKBP38, 0.5 μM calmodulin, 5 mM calcium chloride, substrate Suc-Ala-Phe-Pro-Phe-NHNp, 20 min at 6° C.): 0.0105 s⁻¹
